Experimental data from the supplement of paper PMC5949888.
Most values lie at the floor of the assay. Slopes are relative: functional sequences can read slightly below zero.

System: Saccharomyces cerevisiae PS128 hsf1 delta, HSF1(1-493) fusion
Assay: growth estimate (transactivation domain function in HSF1 fusion, heat-shock survival) (a.u. (slope of normalised read count over time)); higher = stronger growth at 37°C, i.e. more transactivation activity
Details: library: random library
Protocol: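 Random 60-nt DNA library encoding peptides of up to 20 aa, fused to the C-terminus of yeast HSF1 residues 1-493 (C-terminal TAD deleted) and expressed from the native HSF1 promoter on a CEN plasmid in hsf1-deleted S. cerevisiae PS128. Cells were selected at 37°C on -trp 5-FOA plates for 0, 2, 4, 6 and 8 days and amplicons were sequenced. Growth estimate is the slope of a robust linear fit of total-sum-normalised read counts (normalised to the first time point) over time, using at least 2 replicates. Sequences are classed functional (TAD activity) above a threshold of -0.13, set from stop-codon control sequences.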

Row | Substance | growth estimate
1 | VGSQFCKNVVLSAPSLVSRY | < -0.25
2 | SLTAEDLSVVSR | -0.246
3 | RSTG | -0.239
4 | GALPCVPTLKPGRLYWAP | < -0.25
5 | GGMRTLVPVR | < -0.25
6 | IPRVRGV | < -0.25
7 | KARHSRLCSFHKDRSLTRRG | < -0.25
8 | CLPSFIDASALSVGF | < -0.25
9 | KVKDGSSAEKVNYWVANLPP | < -0.25
10 | WTYPVFLSITFQPSGPSQQG | < -0.25
11 | IEFSAG | < -0.25
12 | FSLGAS | < -0.25
13 | DRRGWIVRPNSAAHCGRPRG | -0.25
14 | SLGWGGLVASWRGHGRRISV | < -0.25
15 | FGSYMAIGDCALRAEERVPT | < -0.25
16 | YPAEHEGLPPLTWRQRERAL | < -0.25
17 | CRWLLGRTNGTVHPETC | < -0.25
18 | RVLSLCER | < -0.25
19 | ANSMKYRFIS | < -0.25
20 | VCLTKGDVGRDISRIWAWRG | < -0.25
21 | RSTIANYRSLRRRRKLGGSA | < -0.25
22 | GVLSTDVTSSVTGRLKLWIE | < -0.25
23 | LDTAAWSLTTPNAPNG | < -0.25
24 | ISEKTKRSELMAVTNERQVE | < -0.25

Row | Substance | growth estimate
25 | SGRIRLLWDIFRVTIVLWTR | < -0.25
26 | QGMLR | < -0.25
27 | MVRLIRVLSMPRGQSLLGVT | < -0.25
28 | LSLWVWYFPQMSSATMVQRT | < -0.25
29 | QRCFPVIRSDYQLVEDL | < -0.25
30 | PREHSQGGFEARNGLLHV | < -0.25
31 | SKSWNTLLARVLGLSCLPRP | < -0.25
32 | AAILPSGWAGSSSEMLRRRT | < -0.25
33 | IITVSAGKT | < -0.25
34 | IYNPSFQLRDTSRGPWLVLP | < -0.25
35 | AYAWCHMFNGPPQLKYLGLV | < -0.25
36 | GLGQCRSCDTGQGYGRKFT | < -0.25
37 | EVSVCEGQSGLNYGIYAPGA | < -0.25
38 | YHSGAYPAKQASGTGRW | < -0.25
39 | SYYVRNLI | -0.241
40 | NVSAYQKTSISAAPGWLAPR | < -0.25
41 | GKLVPEYQAPQGSDGALCGS | < -0.25
42 | VNGREPLHR | < -0.25
43 | NTGLHTVSVDRVQSKYSVSQ | < -0.25
44 | FFWHERTCL | < -0.25
45 | VSGWLLEVPHGLGESADKDP | < -0.25
46 | SQFVAI | < -0.25
47 | LRICLGLV | < -0.25
48 | SKRCEAAGLGKMVG | < -0.25

Row | Substance | growth estimate
49 | AKSDQIGREYIGLYTTGARA | < -0.25
50 | LIAQTMLAPLTCRNGFQWLS | 0.0066
51 | TGGVAIVGVRHFGISRG | < -0.25
52 | LFHLVLVDCRWAYSS | < -0.25
53 | TFPHVHVHTTRSSPTIHSGP | < -0.25
54 | KVIPPQTLQDPGEMGTHERT | < -0.25
55 | DQFLRAHSGLTRCAHGHCCN | -0.203
56 | DPTALRPRWT | < -0.25
57 | RSRRMRQCMGDLCGWASNEG | < -0.25
58 | RGYTTTC | < -0.25
59 | RHKRPSGVPGPGLDVQPGRR | < -0.25
60 | SNRTGSAVRQRVVDRESSPT | < -0.25
61 | TSQRFPPTVTEQ | < -0.25
62 | VWWPETITVNYA | -0.112
63 | IWGRPCNWTAAYAIEHSGQR | < -0.25
64 | TVFGGGPRQYQCVTGIPTTR | < -0.25
65 | VIRQRLR | -0.0898
66 | AEKWGRSSRAPCPHLLLMAI | < -0.25
67 | GGRVNSRGITVQHTPQHRER | < -0.25
68 | CRHDSR | -0.231
69 | LNGSNAREPDALKGCRSPVC | < -0.25
70 | INSVLQSDFSRR | < -0.25
71 | RLRSLQLNLRSKLPGWDACV | < -0.25
72 | RTGLRTC | < -0.25

Row | Substance | growth estimate
73 | CKLNRCPCQTDESCSVGTEP | < -0.25
74 | IRTTTD | < -0.25
75 | LKEWAHLRHLHYPRLSNAGV | < -0.25
76 | LATGL | < -0.25
77 | GLKSTTAGGAIALRRTADKH | 0.05
78 | LVSDTTSCCQGVLMATHLLG | < -0.25
79 | RNTHFLRSARSRFVVTSNPL | < -0.25
80 | VCLSRLGIFGNRSSNSSSSS | < -0.25
81 | YRWVVGYNVSGWDLGTLMNV | < -0.25
82 | RDVIFEIYAMT | < -0.25
83 | RAKDDDPTEC | < -0.25
84 | CLGTCEPDRRAFL | < -0.25
85 | NGASVVLGLTASLGRRVP | < -0.25
86 | GLRSVRGIRFVRVDGHSAHG | < -0.25
87 | SGKFNYATPHIVPSGSRVRA | < -0.25
88 | GLTVLRRMLSAQVVNYCDAV | < -0.25
89 | GSGCPFLHVCVPPHCVTAPT | < -0.25
90 | EDLHFTPMACNTSLIRES | < -0.25
91 | IPGVLNR | < -0.25
92 | IRVSICPVNR | < -0.25
93 | CTDISGLRVRLWSEHGS | < -0.25
94 | KQGYRSE | < -0.25
95 | GQRLDGGVVRRF | < -0.25
96 | IATLEANKPSANAKGDTKPG | < -0.25

For convenience, part of the list above.
Row | Substance | growth estimate
57 | RSRRMRQCMGDLCGWASNEG | < -0.25
58 | RGYTTTC | < -0.25
59 | RHKRPSGVPGPGLDVQPGRR | < -0.25
60 | SNRTGSAVRQRVVDRESSPT | < -0.25
61 | TSQRFPPTVTEQ | < -0.25
62 | VWWPETITVNYA | -0.112
63 | IWGRPCNWTAAYAIEHSGQR | < -0.25

As entered above.
growth estimate with NGASVVLGLTASLGRRVP is entered as < -0.25
growth estimate with GQRLDGGVVRRF is entered as < -0.25

More results

Row | Substance | growth estimate
97 | RTDIEFVLKV | < -0.25
98 | VRYRIKNSVLGVNGISHRA | < -0.25
99 | VSSQKLDFWVGADRVASVEG | < -0.25
100 | NRRALAAWEIAYVCNCEKRD | < -0.25
101 | SKPES | < -0.25
102 | SSCNTIRMRSPAAVSVYDPI | < -0.25
103 | WLSQ | < -0.25
104 | ARSRRAFTWVIRYEFRKSAV | < -0.25
105 | RCSQT | < -0.25
106 | FAESSENTSCFNQRGAKLGL | < -0.25
107 | GGPSYESNRSPLRALGKSSA | < -0.25
108 | RIVTRRRAEGLVSENIPCLS | < -0.25
109 | RVALT | < -0.25
110 | SHWE | < -0.25
111 | RRD | < -0.25
112 | DKRCSGRTLVSVIPGKRGPV | < -0.25
113 | CPVS | < -0.25
114 | GGCLG | < -0.25
115 | FSDSSPTSMRT | < -0.25
116 | ELWPFTGRSKVHQGGTRVAR | < -0.25
117 | HPLSKGGWM | < -0.25
118 | VDDSSGPAQRRPVSRALVLS | < -0.25
119 | YVKQSG | < -0.25
120 | LQGKAMRIRVKVGRLLEAFV | < -0.25

Row | Substance | growth estimate
121 | IKSSTLGPGLTRNTRVLAIP | < -0.25
122 | KQKRRPISLCDTQQQPNIDA | < -0.25
123 | VREVSPTHIDGE | < -0.25
124 | ESRGSY | < -0.25
125 | FCIAGDMYSYVWEVSWDRHV | < -0.25
126 | FITAARPQGWSI | < -0.25
127 | HVFTLFGRDVLFSYGPTGTE | < -0.25
128 | GTFEH | < -0.25
129 | RSLVGTTLDCAKGQQFEIRF | < -0.25
130 | KTI | < -0.25
131 | KSLKQVSAARFA | < -0.25
132 | DHGEHINES | < -0.25
133 | GCLSLGNGRGSPVRLIGCDH | < -0.25
134 | LGCTRGDLDRRLAPPGIPWA | < -0.25
135 | RKSKMYAGPRTARICPTDER | < -0.25
136 | VYFIVDWLS | < -0.25
137 | RRPGGP | < -0.25
138 | LNAMQSFLSTK | < -0.25
139 | TFT | 0.207
140 | YVCM | < -0.25
141 | ISYFR | < -0.25
142 | LRTVVICF | < -0.25
143 | ATTCILEALSRRCAS | < -0.25
144 | RQMR | < -0.25

Row | Substance | growth estimate
145 | INGSGLDVGNQHAYRPT | < -0.25
146 | LFAVAHGPKRTKL | < -0.25
147 | ERTKNRVTDSDVVPLT | < -0.25
148 | RKDAYLST | < -0.25
149 | VYTGARSPELLRWEWLLKQE | -0.241
150 | RIVNGCMGRWRNSRSSKVPS | < -0.25
151 | SRAGDRFLRSPYPSLGRPCC | < -0.25
152 | SLQRRPFRSPE | < -0.25
153 | CSLRPKCPVMTRRTIYGSSS | < -0.25
154 | QKSLIGSVAGVGPGLGGGPH | < -0.25
155 | LVFRFRYFGKWVFVE | -0.246
156 | HMQQTSL | < -0.25
157 | KPCSTAGIIVGNRYPTAGRV | < -0.25
158 | FQFRGPALASRAGLMISTLC | < -0.25
159 | RICRRITNSNGRIRNLLSWA | < -0.25
160 | ETWDVSSSGNFA | < -0.25
161 | QRVTALDLYFAFLLPKRAVP | < -0.25
162 | RLARAVVSLVVCPNPGSTGL | < -0.25
163 | PDVAIRVEGIPALLTSLTQG | < -0.25
164 | PRTYRGLGLRD | < -0.25
165 | VGDVQPKIDLTPLCA | < -0.25
166 | TLLHAGV | < -0.25
167 | GLTSV | < -0.25
168 | VRPYSV | < -0.25

Row | Substance | growth estimate
169 | TCGYFFTVACKCRT | < -0.25
170 | LYESACV | < -0.25
171 | SKSRCALFRCVGEYVVLVVR | < -0.25
172 | APWVAFHWES | < -0.25
173 | RVETLARERTCRTVYGSNHP | < -0.25
174 | NHNARFSPWVPQAS | < -0.25
175 | DINND | -0.167
176 | SCRVSTHPLHGSLYIGGTVH | < -0.25
177 | WTTNIRGTGAFETKNRLRKP | < -0.25
178 | QINGG | < -0.25
179 | FAVIL | < -0.25
180 | NLV | < -0.25
181 | GILAWGTPV | < -0.25
182 | IETSVNTIRPD | < -0.25
183 | AANTVRASPLTYGTFGYAPD | < -0.25
184 | LQTALIL | < -0.25
185 | LPFNLSLCSGQQGGAELHAM | < -0.25
186 | IGTLVCLNQLSIGLKRVSS | < -0.25
187 | TWWTRCHRCNESEHSPASRS | < -0.25
188 | TLSQKALHKDANFIQHFLRY | < -0.25
189 | SIRTTQYWRAEVPSLSNLEG | < -0.25
190 | VGCLSVFKFSAKGRHHLILG | < -0.25
